This is an account of results in PubChem BioAssay AID651664 (NMMLSC, 2012).

For orientation: inhibition means the change of the read-out against control, counted positive when it falls.

The whole screen tested about 1,800 compounds, of which fewer than 10 were called active.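 How the source made its calls: active means inhibition of granule release above a set limit; inactive means the rest.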 This is one part of the list.

A short description of the test: LAMP-1 surface externalization blockers in TALL-104 cells – cell-based, flow cytometry, validation set (AID 651664). Conditions: TALL-104 LAMP-1 externalization, at 15.2 µM, active compounds read high. (In general: A flow cytometer gives signals particle by particle.)
As to `COc1ccc2c(CCN)c[nH]c2c1`, the inhibition was inactive: 2.4%. In the case of `O=C1C2CCN(CC2)C1Cc1ccc(OCCOc2ccccc2)cc1` (stereo not drawn) it was inactive: 6.8%; in that of `Cc1ccc(OCC(=O)N2CCN(CC3CC4C=CC3C4)CC2)cc1` (stereo not drawn), inactive: 0.4%; in that of `COCCCNC(=O)c1c(NC(=O)c2ccco2)n(Cc2ccccc2)c2nc3ccccc3nc12`, inactive: -0.5%. In the case of `O=C(c1cc(=O)[nH]c2ccc(Br)cc12)N1CCC2(CC1)OCCO2` it was inactive: -3.6%.

`CCCCOP(=O)(OCCCC)/C(C#N)=C(/C)O`: the inhibition was inactive: 4.1%. In the case of `COc1ccc(Cn2c(N)c(C(=O)NCc3ccco3)c3nc4ccccc4nc32)cc1OC` it was inactive: -2.6%. In the case of `CCN1CC=C(c2c[nH]c3ccccc23)CC1` it was inactive: 4.8%; in that of `CCCN1CCC2(CC1)NC(CO)(CO)CO2`, inactive: 1.2%. In the case of `Cc1ccc(-n2c(-c3cccs3)nc3ccccc3c2=O)cc1` it was inactive: 1%.

Take `Cc1cc(NC(=O)COC(=O)c2c(C)nn(Cc3ccccc3)c2C)no1`: the inhibition was inactive: 5.5%.

As to `Cc1ccc(-c2nc3ccc(Cl)cc3n2OC(=O)N(C)C)cc1`, the inhibition was inactive: -1.1%. `CCOC(=O)C1=C(C)N(C)C2(C)CC1c1ccccc1O2` (stereo not drawn): the inhibition is inactive: 2.1%.

As for `C=CCn1c(O)c(C(C)=NCCCO)c(=O)[nH]c1=O`, the inhibition was inactive: -5.1%. Regarding `Cc1ccc2nc(N3CCC(C(=O)N4CCC5(CC4)OCCO5)CC3)sc2c1`, the inhibition was inactive: -2.7%. In the case of `COP(=O)(OC)C1(Nc2ccc(C)cc2)CCCCC1` it was inactive: -1.3%; in that of `CC(Cc1ccccc1)NC(=O)NC(C)Cc1ccccc1` (stereo not drawn), inactive: -0.4%; in that of `Nc1c(C(=O)NCCN2CCOCC2)c2nc3ccccc3nc2n1Cc1ccco1`, inactive: 1.8%. In the case of `Cc1ccc(C(=O)C2CN3CCC2CC3)cc1` (stereo not drawn) it was inactive: -2.9%. For the compound `Cc1ccc(S(=O)(=O)N(C)CCCC(=O)N2CCN(c3ccccn3)CC2)cc1`, the inhibition was inactive: 3.2%. `Cc1cccc(N2C(=O)/C(=C/N3CCN(C(=O)c4ccco4)CC3)C(=O)NC2=S)c1`: the inhibition is inactive: -2.5%. In the case of `Cc1nn(Cc2ccccc2)c(C)c1C(=O)OCC(=O)NCc1ccco1` it was inactive: -1.6%; in that of `CCOC(=O)c1ccc(NC(=O)c2c(O)[nH]c(=O)[nH]c2=O)cc1`, inactive: -0.6%. In the case of `CCOc1ccc(-n2c(O)c(C=Nc3ccc(N4CCOCC4)cc3)c(=O)[nH]c2=O)cc1` it was inactive: 0.2%; in that of `CN(C)C(=O)On1c(-c2ccccc2)nc2ccc(Cl)cc21`, inactive: -1.5%; in that of `O=C(CF)NC(Nc1cccc2cccnc12)C(Cl)(Cl)Cl` (stereo not drawn), inactive: -0.5%.

With `CCC(=O)Nc1ccc(N2CCN(CC)CC2)c(Cl)c1`, the inhibition was inactive: -3.3%. For `Cc1ccccc1-n1c(O)c(C=NCCN2CCOCC2)c(=O)[nH]c1=O`, the inhibition was inactive: 1.3%. In the case of `CCN1CCC(O)(c2ccccc2)C(C(=O)c2ccccc2)C1` (stereo not drawn) it was inactive: -3%; in that of `Cc1cccc(OCC(=O)N2CCN(Cc3ccncc3)CC2)c1`, inactive: -3.4%; in that of `O=C1NC(=S)N(c2ccc(Cl)cc2)C(=O)/C1=C/N1CCN(C(=O)c2ccco2)CC1`, inactive: -2.7%. In the case of `CCCCCn1c(=O)c(C(=O)NCc2ccncc2)c(O)c2ccccc21` it was inactive: -2.3%; in that of `CCn1nc(-c2ccccc2)nc2c(=O)n(C)c(=O)nc1-2`, inactive: -0.5%; in that of `Cc1ccc(-n2c(O)c(C=NCCN3CCOCC3)c(=O)[nH]c2=O)cc1`, inactive: 1.3%. `COC(=O)C(O)(c1c(C)[nH]c2ccccc12)C(F)(F)F` (stereo not drawn): the inhibition is inactive: -0.9%. In the case of `CCN(CC)c1ccc(CN2CC=C(c3ccc(F)cc3)CC2)cc1` it was inactive: -2.4%; in that of `O[C@H]1C2CCC1C(N1CCCCC1)CC2` (stereo partly drawn), inactive: 0.4%. In the case of `CC(=Nc1ccc2c(c1)CCC2)c1c(O)n(C)c(=O)n(C)c1=O` it was inactive: -1.7%. In the case of `CCCCc1nc2ccccc2c(=O)n1-c1ccccc1O` it was inactive: 10.4%; in that of `CCC(COC(=O)NC)NC(=O)Oc1ccccc1` (stereo not drawn), inactive: -0.5%. `COc1ccc(Br)cc1CN1CCN(C(=O)Cc2ccccc2)CC1`: the inhibition was inactive: 5.6%. For `CC(C)c1cccc(C(C)C)c1OCCn1ccnc1`, the inhibition is inactive: -2.2%.

With `Cc1cccc(-n2c(O)c(C=NCCCN3CCOCC3)c(=O)[nH]c2=O)c1C`, the inhibition is inactive: -5.6%.
